Results deposited as PubChem BioAssay AID1224830 (NIAID, 2016)
Test: 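Genes whose knock-down alters the TNF-alpha reporter response to LPS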 (primary screen). Cells: human THP-1 monocytic leukaemia cells, TNF dual-luciferase reporter clone, PMA-differentiated to macrophage-like cells. Reagents: siRNA pool against human genes, 50 nM. Time to read-out: LPS for 4 h, given about 3 days after siRNA transfection. Treatment: bacterial LPS (TLR4 ligand), 10 ng/ml. Measurement: 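Ratio of firefly to renilla light, scaled to the plate median and expressed as a robust z-score per replicate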. Direction: TNF reporter robust z-score: higher = stronger TNF reporter response to LPS. Rule for the call: 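Each well counts as active if its z-score is over 2.8 or under -1.5; controls are left without a call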.
The deposit covers about 18,000 reagents; this is a part drawn at random. About 2,900 of them (16%) were called active. 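Calls are made per well; low scores hint the gene aids the LPS response, high scores that it dampens it.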 Unmarked entries are inactive. Repeated entries: four replicate wells of each siRNA pool. Reagent sequences are not shown.

| Gene | TNF reporter robust z-score |
| --- | --- |
| AP3M1 | -0.01 |
| AP3M1 | 0.48 |
| AP3M1 | 0.82 |
| AP3M1 | 1.07 |
| L3MBTL1 | -0.59 |
| L3MBTL1 | -0.09 |
| L3MBTL1 | 0.33 |
| L3MBTL1 | 1.42 |
| RPUSD4 | -0.72 |
| RPUSD4 | -1.04 |
| RPUSD4 | -0.83 |
| RPUSD4 | -0.95 |
| GPS1 | -0.12 |
| GPS1 | -0.06 |
| GPS1 | -0.63 |
| GPS1 | -0.64 |
| BCAS4 | -0.04 |
| BCAS4 | -0.18 |
| BCAS4 | 0.1 |
| BCAS4 | 0.6 |
| PPP2R5D | 0.4 |
| PPP2R5D | 1.2 |
| PPP2R5D | -0.75 |
| PPP2R5D | 1.53 |
| ZCCHC14 | -0.24 |
| ZCCHC14 | 1.56 |
| ZCCHC14 | 1.41 |
| ZCCHC14 | 3.39 (active) |
| UPK3A | 0.92 |
| UPK3A | 0.41 |
| UPK3A | 1.21 |
| UPK3A | -0.95 |
| CD2 | -0.38 |
| CD2 | -0.21 |
| CD2 | -0.34 |
| CD2 | 0.06 |
| ENTPD3 | -0.25 |
| ENTPD3 | -1.06 |
| ENTPD3 | 0.22 |
| ENTPD3 | -0.07 |
| PIEZO2 | 1.14 |
| PIEZO2 | 0.39 |
| PIEZO2 | 0.41 |
| PIEZO2 | 1.27 |
| TPT1 | -0.15 |
| TPT1 | 0.34 |
| TPT1 | -0.51 |
| TPT1 | -0.12 |
| POU6F2 | -1.65 (active) |
| POU6F2 | -0.97 |
| POU6F2 | -0.94 |
| POU6F2 | -0.53 |
| HES3 | 1.94 |
| HES3 | 0.8 |
| HES3 | 1.36 |
| HES3 | 0.64 |
| C1orf56 | -0.28 |
| C1orf56 | -0.5 |
| C1orf56 | -0.44 |
| COX6B1 | 0.44 |
| COX6B1 | 0.43 |
| COX6B1 | 0.4 |
| COX6B1 | 0.88 |
| POFUT1 | -1.8 (active) |
| POFUT1 | -2.13 (active) |
| POFUT1 | -1.86 (active) |
| POFUT1 | -1.19 |
| SP4 | -0.61 |
| SP4 | -0.1 |
| SP4 | -0.39 |
| SP4 | -0.11 |
| PSTPIP1 | 0.52 |
| PSTPIP1 | 1.03 |
| PSTPIP1 | 0.79 |
| PSTPIP1 | 0.81 |
| RBBP5 | -0.98 |
| RBBP5 | 0 |
| RBBP5 | -0.81 |
| RBBP5 | -0.01 |
| CPEB2 | -0.05 |
| CPEB2 | 0.05 |
| CPEB2 | 0.8 |
| CPEB2 | 0.45 |
| CAGE1 | -0.77 |
| CAGE1 | -0.87 |
| CAGE1 | -0.57 |
| CAGE1 | 0.28 |
| KCNU1 | -1.53 (active) |
| KCNU1 | -0.65 |
| KCNU1 | 0.08 |
| KCNU1 | -0.4 |
| TCTN2 | -0.35 |
| TCTN2 | 0.72 |
| TCTN2 | -0.02 |
| TCTN2 | 0.16 |
| SPATA6L | -0.05 |
| SPATA6L | 0.68 |
| SPATA6L | 0.87 |
| SPATA6L | -0.16 |
| SLC49A3 | -0.12 |
| SLC49A3 | -0.48 |
| SLC49A3 | 0.12 |
| SLC49A3 | -0.44 |
| RANGAP1 | -0.65 |
| RANGAP1 | 1.36 |
| RANGAP1 | -0.93 |
| RANGAP1 | -0.7 |
| PLPP2 | 1.15 |
| PLPP2 | 0.68 |
| PLPP2 | -0.15 |
| PLPP2 | 0.51 |
| PLEK2 | -1.2 |
| PLEK2 | -1.15 |
| PLEK2 | -0.44 |
| PLEK2 | 0.03 |
| ELK1 | 0.19 |
| ELK1 | 0.36 |
| ELK1 | 0.71 |
| ELK1 | 0.58 |
| NR0B1 | -0.96 |
| NR0B1 | 0.89 |
| NR0B1 | 0.74 |
| NR0B1 | 1.55 |
| TRRAP | -1.34 |
| TRRAP | -0.13 |
| TRRAP | -0.7 |
| TRRAP | 0.16 |
| GRM6 | -0.91 |
| GRM6 | -0.11 |
| GRM6 | 1.01 |
| GRM6 | -0.15 |
| NUAK2 | -0.19 |
| NUAK2 | 0.37 |
| NUAK2 | 4.18 (active) |
| NUAK2 | 1.57 |
| UAP1L1 | -0.55 |
| UAP1L1 | 0.61 |
| UAP1L1 | -0.81 |
| UAP1L1 | 0.29 |
| PYGM | -1.06 |
| PYGM | -1.69 (active) |
| PYGM | -1.17 |
| PYGM | -0.18 |
